Measurements reported in publication PMC6028525.

The chains behind the UniProt entries cited, without tags or fusion partners. Where a name states a change or a piece, a line headed by the entry shows the natural chain unless it says otherwise.
UniProt Q9VVM7: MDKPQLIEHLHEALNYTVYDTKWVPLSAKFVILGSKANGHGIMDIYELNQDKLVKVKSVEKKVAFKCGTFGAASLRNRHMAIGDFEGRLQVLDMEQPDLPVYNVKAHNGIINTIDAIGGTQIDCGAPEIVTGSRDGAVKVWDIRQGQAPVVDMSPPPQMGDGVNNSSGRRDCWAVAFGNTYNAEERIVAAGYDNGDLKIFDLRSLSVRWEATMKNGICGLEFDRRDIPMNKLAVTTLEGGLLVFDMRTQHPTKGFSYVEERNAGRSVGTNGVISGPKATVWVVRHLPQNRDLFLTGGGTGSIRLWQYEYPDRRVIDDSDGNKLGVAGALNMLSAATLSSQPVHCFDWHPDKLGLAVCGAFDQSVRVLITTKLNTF
UniProt Q9V3E9: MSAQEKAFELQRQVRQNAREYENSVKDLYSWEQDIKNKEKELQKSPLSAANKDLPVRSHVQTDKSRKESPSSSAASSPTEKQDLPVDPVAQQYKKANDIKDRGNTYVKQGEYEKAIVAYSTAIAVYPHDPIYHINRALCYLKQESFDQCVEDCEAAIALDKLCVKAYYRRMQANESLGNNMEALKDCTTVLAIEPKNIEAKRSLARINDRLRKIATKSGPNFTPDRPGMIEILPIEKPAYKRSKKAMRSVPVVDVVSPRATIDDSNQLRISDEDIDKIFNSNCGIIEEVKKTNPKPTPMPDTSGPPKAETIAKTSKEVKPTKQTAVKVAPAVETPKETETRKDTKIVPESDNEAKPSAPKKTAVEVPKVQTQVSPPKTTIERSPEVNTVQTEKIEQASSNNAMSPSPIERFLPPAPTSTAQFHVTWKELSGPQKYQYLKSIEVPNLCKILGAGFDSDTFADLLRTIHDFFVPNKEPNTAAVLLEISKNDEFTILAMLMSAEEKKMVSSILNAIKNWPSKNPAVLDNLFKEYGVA

What was measured:
[1] = target: Drosophila Wdr92, epitope-tagged (Drosophila melanogaster) (UniProt Q9VVM7); assay: co-IP; S2 cells transfected with FLAG-tagged and HA-tagged Drosophila proteins, anti-FLAG immunoprecipitation from cell extracts, blots probed with anti-HA and anti-FLAG; for Spag1 with and without overexpressed Pontin and Reptin
[2] = target: Drosophila Wdr92, epitope-tagged (Drosophila melanogaster) (UniProt Q9VVM7); assay: as above; remark: listed apart in the source

binding [1]	binding [2]	Molecule
binds	–	Drosophila Rpap3/Spaghetti, epitope-tagged (from UniProt Q9V3E9)
–	binds	Drosophila Spag1/CG18472, epitope-tagged (protein, UniProt Q9VBA1 1-469) MEKEKKKSLLERYNIPIHYLDFAHVEKCTNAREMEKIVQILRSGEEGHYPDLQRCAEEKLKALKPDSKLFRYEEQIKQSTDLDKTELKPILDWTDAIKTKDNALNELKKVKQNLNLPSVRKLSKIDLEKESKTEKPKPAPKATSPSNTKNKEARIKSTDYRKWDKYDPDEEILRMDLNEERDQEQREKIISNHSKSVTTDKLQSERDSLYERLQAQLKNLSQLEKEQFAERHRLRGNESFKAKEYENAIEEYNCSIIYDPENAVHAYNNRAVAHLKLKKYFSAISDCQACLQIDPMNIKAHLRMAEAHNAEGKHLESLNVYKKLLDFEPDNAIAKKAVEKLTSMLGEVAPSSATRLIIEEIDPPQLKTSEPKKEAEKSEPTVVKKPEPVVSAKKPPPIKDYDLAELVKPNRMVKSNLVSAAEALGNKMQASKGGAPKKPQSPPMTPKETLLRLPQDNLNNSNKLLIQEI

Where two headings read alike, the source gives them in different places. No constants are given. Whether binding was seen depends on the method and setting. Binding seen in cells or lysates may run through a third protein. A result given as binding can be weak or reduced; the word gives no strength. For some assays here: Sequences can lack the tags named with a protein.
